Values from PubChem BioAssay AID1224830 (NIAID, 2016).

- Assay: 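Host factors that control LPS-induced TNF expression in human macrophages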 (primary screen)
- Cell system: human THP-1 monocytic leukaemia cells, TNF dual-luciferase reporter clone, PMA-differentiated to macrophage-like cells
- Reagents: siRNA pool against human genes, 50 nM
- Duration: LPS for 4 h, given about 3 days after siRNA transfection
- Treatment: bacterial LPS (TLR4 ligand), 10 ng/ml
- Measured: 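TNF firefly reporter luminescence divided by renilla, normalised to the plate median, then turned into a robust z-score for each replicate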
- Reading the numbers: TNF reporter robust z-score: higher = stronger TNF reporter response to LPS
- Hit rule: 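Each well counts as active if its z-score is over 2.8 or under -1.5; controls are left without a call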
Here is an unselected part of about 18,000 reagents tested. Over the whole deposit, about 2,900 (16%) were called active. 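Calls are made per well; low scores hint the gene aids the LPS response, high scores that it dampens it.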 Entries without a mark were called inactive. Repeated entries: four replicate wells of each siRNA pool. Reagent sequences are not shown.

| gene | TNF reporter robust z-score |
| --- | --- |
| PCDHA11 (protocadherin alpha 11) | -1.27 |
| PCDHA11 (protocadherin alpha 11) | -0.96 |
| PCDHA11 (protocadherin alpha 11) | -0.16 |
| TERF1 (telomeric repeat binding factor 1) | 1.65 |
| TERF1 (telomeric repeat binding factor 1) | 0.79 |
| TERF1 (telomeric repeat binding factor 1) | 0.59 |
| TERF1 (telomeric repeat binding factor 1) | 1.99 |
| PIEZO1 | -1.11 |
| PIEZO1 | -0.47 |
| PIEZO1 | -0.5 |
| PIEZO1 | -0.66 |
| OVOL2 (ovo like zinc finger 2) | -1.16 |
| OVOL2 (ovo like zinc finger 2) | 0.18 |
| OVOL2 (ovo like zinc finger 2) | -0.05 |
| OVOL2 (ovo like zinc finger 2) | -0.85 |
| COX7B (cytochrome c oxidase subunit 7B) | 0.55 |
| COX7B (cytochrome c oxidase subunit 7B) | 0.5 |
| COX7B (cytochrome c oxidase subunit 7B) | -1.26 |
| COX7B (cytochrome c oxidase subunit 7B) | 0.96 |
| H4C4 (H4 clustered histone 4) | -0.22 |
| H4C4 (H4 clustered histone 4) | -0.18 |
| H4C4 (H4 clustered histone 4) | 0.42 |
| H4C4 (H4 clustered histone 4) | -0.14 |
| TFAP2A (transcription factor AP-2 alpha) | 2.08 |
| TFAP2A (transcription factor AP-2 alpha) | 0.1 |
| TFAP2A (transcription factor AP-2 alpha) | 1.46 |
| TFAP2A (transcription factor AP-2 alpha) | 0.51 |
| ZBED1 (zinc finger BED-type containing 1) | -0.14 |
| ZBED1 (zinc finger BED-type containing 1) | -1.27 |
| ZBED1 (zinc finger BED-type containing 1) | -1.11 |
| ZBED1 (zinc finger BED-type containing 1) | -0.25 |
| DPH1 (diphthamide biosynthesis 1) | -0.29 |
| DPH1 (diphthamide biosynthesis 1) | 0.6 |
| DPH1 (diphthamide biosynthesis 1) | -1.39 |
| DPH1 (diphthamide biosynthesis 1) | 0.87 |

No new results follow: an excerpt of the list.
| gene | TNF reporter robust z-score |
| --- | --- |
| TFAP2A (transcription factor AP-2 alpha) | 2.08 |
| TFAP2A (transcription factor AP-2 alpha) | 0.1 |
| TFAP2A (transcription factor AP-2 alpha) | 1.46 |
| TFAP2A (transcription factor AP-2 alpha) | 0.51 |
| ZBED1 (zinc finger BED-type containing 1) | -0.14 |
| ZBED1 (zinc finger BED-type containing 1) | -1.27 |
| ZBED1 (zinc finger BED-type containing 1) | -1.11 |
| ZBED1 (zinc finger BED-type containing 1) | -0.25 |
| DPH1 (diphthamide biosynthesis 1) | -0.29 |
| DPH1 (diphthamide biosynthesis 1) | 0.6 |

Next entries follow.
| gene | TNF reporter robust z-score |
| --- | --- |
| CCNG1 (cyclin G1) | -0.52 |
| CCNG1 (cyclin G1) | 0.14 |
| CCNG1 (cyclin G1) | 0.32 |
| CCNG1 (cyclin G1) | 0.72 |
| HEPACAM2 (HEPACAM family member 2) | 2.01 |
| HEPACAM2 (HEPACAM family member 2) | 0.87 |
| HEPACAM2 (HEPACAM family member 2) | -0.4 |
| HEPACAM2 (HEPACAM family member 2) | 1.27 |
| CDK14 (cyclin dependent kinase 14) | -2.02 (active) |
| CDK14 (cyclin dependent kinase 14) | -0.69 |
| CDK14 (cyclin dependent kinase 14) | -1.14 |
| CDK14 (cyclin dependent kinase 14) | -0.77 |
| OR10K2 (olfactory receptor family 10 subfamily K member 2) | -0.55 |
| OR10K2 (olfactory receptor family 10 subfamily K member 2) | 0.12 |
| OR10K2 (olfactory receptor family 10 subfamily K member 2) | -0.36 |
| OR10K2 (olfactory receptor family 10 subfamily K member 2) | -0.63 |
| PHC2 (polyhomeotic homolog 2) | -1.6 (active) |
| PHC2 (polyhomeotic homolog 2) | -1.46 |
| PHC2 (polyhomeotic homolog 2) | -1.81 (active) |
| PHC2 (polyhomeotic homolog 2) | -1.39 |
| FGF19 (fibroblast growth factor 19) | -0.41 |
| FGF19 (fibroblast growth factor 19) | -0.19 |
| FGF19 (fibroblast growth factor 19) | 0.83 |
| FGF19 (fibroblast growth factor 19) | 0.97 |
| CFAP36 (cilia and flagella associated protein 36) | -0.8 |
| CFAP36 (cilia and flagella associated protein 36) | 0.05 |
| CFAP36 (cilia and flagella associated protein 36) | 1.73 |
| CFAP36 (cilia and flagella associated protein 36) | 1.58 |
| CIART (circadian associated repressor of transcription) | -0.26 |
| CIART (circadian associated repressor of transcription) | -0.31 |
| CIART (circadian associated repressor of transcription) | -0.57 |
| CIART (circadian associated repressor of transcription) | -0.71 |
| LSG1 (large 60S subunit nuclear export GTPase 1) | 1.35 |
| LSG1 (large 60S subunit nuclear export GTPase 1) | 1.82 |
| LSG1 (large 60S subunit nuclear export GTPase 1) | 0.32 |
| LSG1 (large 60S subunit nuclear export GTPase 1) | 0.54 |
| SIRPB1 (signal regulatory protein beta 1) | -0.5 |
| SIRPB1 (signal regulatory protein beta 1) | -1.19 |
| SIRPB1 (signal regulatory protein beta 1) | -1.21 |
| SIRPB1 (signal regulatory protein beta 1) | -0.87 |
